Experimental data reported in paper PMC3378586.
These are yes or no findings as the source states them, for the method shown. Binding seen in cells or lysates may run through a third protein. Some entries that bind do so weakly or less than the wild type. Sequences can lack the tags named with a protein.

T1: GST-tagged Ubp9 (S. cerevisiae) (UniProt P39967)
T1 sequence: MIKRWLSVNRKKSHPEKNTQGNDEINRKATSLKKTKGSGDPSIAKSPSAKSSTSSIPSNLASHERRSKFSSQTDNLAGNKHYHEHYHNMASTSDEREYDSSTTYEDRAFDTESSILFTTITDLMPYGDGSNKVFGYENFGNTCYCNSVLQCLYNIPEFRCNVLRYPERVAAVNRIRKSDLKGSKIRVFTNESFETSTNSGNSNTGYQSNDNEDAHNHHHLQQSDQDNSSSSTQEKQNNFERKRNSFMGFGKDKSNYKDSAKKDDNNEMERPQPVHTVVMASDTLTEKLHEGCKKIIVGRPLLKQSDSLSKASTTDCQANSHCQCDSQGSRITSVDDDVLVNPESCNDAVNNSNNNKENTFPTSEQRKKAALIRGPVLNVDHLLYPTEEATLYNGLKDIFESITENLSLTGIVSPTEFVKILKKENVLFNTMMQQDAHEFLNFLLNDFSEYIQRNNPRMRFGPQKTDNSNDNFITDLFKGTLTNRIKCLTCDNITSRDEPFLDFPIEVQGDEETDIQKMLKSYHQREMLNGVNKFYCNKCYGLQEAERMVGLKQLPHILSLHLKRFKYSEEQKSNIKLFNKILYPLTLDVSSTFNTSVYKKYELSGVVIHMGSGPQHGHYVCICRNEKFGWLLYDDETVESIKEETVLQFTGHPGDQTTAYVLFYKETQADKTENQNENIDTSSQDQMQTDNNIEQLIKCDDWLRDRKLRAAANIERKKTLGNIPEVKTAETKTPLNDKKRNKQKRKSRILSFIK

T2: GST-tagged Ubp13 (S. cerevisiae) (UniProt P38187)
T2 sequence: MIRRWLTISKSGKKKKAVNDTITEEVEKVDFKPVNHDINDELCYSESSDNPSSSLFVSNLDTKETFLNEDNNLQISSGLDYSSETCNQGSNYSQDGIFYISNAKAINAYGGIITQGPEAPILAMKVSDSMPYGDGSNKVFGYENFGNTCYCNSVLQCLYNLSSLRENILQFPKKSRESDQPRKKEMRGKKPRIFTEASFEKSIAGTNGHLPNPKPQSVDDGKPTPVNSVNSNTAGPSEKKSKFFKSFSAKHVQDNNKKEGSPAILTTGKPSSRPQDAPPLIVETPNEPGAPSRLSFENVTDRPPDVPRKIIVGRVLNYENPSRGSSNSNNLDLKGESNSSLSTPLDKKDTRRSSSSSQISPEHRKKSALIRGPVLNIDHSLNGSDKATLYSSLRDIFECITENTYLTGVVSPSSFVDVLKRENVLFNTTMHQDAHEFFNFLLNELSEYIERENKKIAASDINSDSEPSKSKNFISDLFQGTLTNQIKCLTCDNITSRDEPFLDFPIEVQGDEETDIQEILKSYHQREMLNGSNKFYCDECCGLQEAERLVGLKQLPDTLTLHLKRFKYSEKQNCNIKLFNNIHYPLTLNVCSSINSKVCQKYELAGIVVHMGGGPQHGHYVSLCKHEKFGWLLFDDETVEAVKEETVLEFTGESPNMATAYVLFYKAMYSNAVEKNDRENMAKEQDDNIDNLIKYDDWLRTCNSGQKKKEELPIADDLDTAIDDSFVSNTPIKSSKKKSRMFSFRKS


Key:
[1] = target: T1, GST-tagged Ubp9 (S. cerevisiae); assay: pull-down; GST, GST-Ubp9 or GST-Ubp13 on glutathione-Sepharose beads incubated with a lysate of yeast cells producing Duf1-HA; 50 mM Tris pH 7.4, 300 mM NaCl, 10 mM MgCl2, 0.1% Triton X-100, 1 mM DTT, 10% glycerol; 1 h at 4°C; eight washes; blot with anti-HA; only the target purified
[2] = target: T2, GST-tagged Ubp13 (S. cerevisiae); assay: as above
[3] = target: T1, GST-tagged Ubp9 (S. cerevisiae); assay: pull-down; GST, GST-Ubp9 or GST-Ubp13 on glutathione-Sepharose beads incubated with a bacterial lysate of cells expressing 6His-Duf1; same buffer as for the yeast lysate; 1 h at 4°C; blot with anti-His; only the target purified
[4] = target: T2, GST-tagged Ubp13 (S. cerevisiae); assay: as above

binding [1] | binding [2] | binding [3] | binding [4] | Binder
binds | binds |  |  | Duf1-HA, chromosome-encoded (protein, UniProt Q99247 1-1116) MNQLTVSYGLISPDYCTSQDAHILPITKILYPDIPGKNYFLTSGRDGSIILHKNTQLSNEPETAATTIKNDAIRMQVHSDWASDLIHVNMKNSDPSAGDTFISVSHDFSIVLISVNAQLTTWDKKIIGDHDDYIKCIVPIHYEMSNDYELEEQEGGPDNVHDGINNGIVVDEQNNFLFVTGGLDRKIKLWCLSSGPEKMATLLHTFDNAQSNDTGSIYSMSPIIPKYSFDDNQTSRPFDFVAGDCNGDLIFYSCKYRKEVIRIQNAHRTNIKVVRTLDDSTRLISTSSDGVINVWDLNCRHDQTTGALQLPKKIGSWSWDSSIWCVQGTSLDKLYFGDSQGNVMRANLSSYEDAKLTRIFKPDHHHHHHHHHEHEEQNISTTDAKVKKYGGILDIALLPNEKLLFSFCTDSNLNVLDLTNNHFSVNEGGFALTRSSLLTNRRHVITENTKGQMQRWDIVSCELLNTFDSSEGSFDDIVMKYTSKEILSHWCTVSVKVGMLFVKINPKFLKTEVYGSALKDYQVVNNIEINSDERYNLGKIVINSLFNEFISYEVQKDKLLRKKIFSLKKKDLTNSLTLDTGYNSESKKNNKDKKRKSTFKISSTLSIGNTNSSGTPPNSAPATPVMAETIVLEEQPLLQSASDKAIDDSLELVQPLPASKKPYFRTQSSGSLLSRKFKSFRSTSGRATTGLNTPEEPKGILPDTPHVINDDSAFPQAINTTQQSKDATPESMLWNHPFKLEQKLSAISSQDLPSNNTHNKLRSSENSRANSTSTLEGNEKKKPEFMPDLLEQIQESYKQQYMNTSSLKYLTKRLPVTKIIKASSCPIIRVKSATLVLVHLWKEGSCGGRVLFSTLLPPSHVDNETVSGGKENSKPPDDEEVDLQAVDDDKLGKYDLIDGELGSRLNRRQIFEQLEENLPYWFAKALFRDIKTVEEQPKLNFLIMPWSSVGGSEAAGNENKKKFISASDTTESSGNDSSDSSLGNGNEAVSPSTQQQFHNMLKFGRPKTSEQELNPTDLPRISEANVKLVAPGMIRVKKIKLYVADRFETKTPEMKAKMEPSLWLDLLCRGQVLDNDMTLNTVRTLYWKSQGDIVLEYRRKVHNSPLVHEVNGNEGK
 |  | binds | binds | 6His-Duf1 produced in bacteria (protein, UniProt Q99247 1-1116) MNQLTVSYGLISPDYCTSQDAHILPITKILYPDIPGKNYFLTSGRDGSIILHKNTQLSNEPETAATTIKNDAIRMQVHSDWASDLIHVNMKNSDPSAGDTFISVSHDFSIVLISVNAQLTTWDKKIIGDHDDYIKCIVPIHYEMSNDYELEEQEGGPDNVHDGINNGIVVDEQNNFLFVTGGLDRKIKLWCLSSGPEKMATLLHTFDNAQSNDTGSIYSMSPIIPKYSFDDNQTSRPFDFVAGDCNGDLIFYSCKYRKEVIRIQNAHRTNIKVVRTLDDSTRLISTSSDGVINVWDLNCRHDQTTGALQLPKKIGSWSWDSSIWCVQGTSLDKLYFGDSQGNVMRANLSSYEDAKLTRIFKPDHHHHHHHHHEHEEQNISTTDAKVKKYGGILDIALLPNEKLLFSFCTDSNLNVLDLTNNHFSVNEGGFALTRSSLLTNRRHVITENTKGQMQRWDIVSCELLNTFDSSEGSFDDIVMKYTSKEILSHWCTVSVKVGMLFVKINPKFLKTEVYGSALKDYQVVNNIEINSDERYNLGKIVINSLFNEFISYEVQKDKLLRKKIFSLKKKDLTNSLTLDTGYNSESKKNNKDKKRKSTFKISSTLSIGNTNSSGTPPNSAPATPVMAETIVLEEQPLLQSASDKAIDDSLELVQPLPASKKPYFRTQSSGSLLSRKFKSFRSTSGRATTGLNTPEEPKGILPDTPHVINDDSAFPQAINTTQQSKDATPESMLWNHPFKLEQKLSAISSQDLPSNNTHNKLRSSENSRANSTSTLEGNEKKKPEFMPDLLEQIQESYKQQYMNTSSLKYLTKRLPVTKIIKASSCPIIRVKSATLVLVHLWKEGSCGGRVLFSTLLPPSHVDNETVSGGKENSKPPDDEEVDLQAVDDDKLGKYDLIDGELGSRLNRRQIFEQLEENLPYWFAKALFRDIKTVEEQPKLNFLIMPWSSVGGSEAAGNENKKKFISASDTTESSGNDSSDSSLGNGNEAVSPSTQQQFHNMLKFGRPKTSEQELNPTDLPRISEANVKLVAPGMIRVKKIKLYVADRFETKTPEMKAKMEPSLWLDLLCRGQVLDNDMTLNTVRTLYWKSQGDIVLEYRRKVHNSPLVHEVNGNEGK
